Measurements from patent US10336734B2, “Inhibitors of ACK1/TNK2 tyrosine kinase” (H. LEE MOFFITT CANCER CENTER AND RESEARCH INSTITUTE, INC., priority 2015, dated 2019).

System: enzalutamide-resistant C4-2B cell line
Assay: Cell viability and AR expression, enzalutamide-resistant C4-2B cells
Assay type: cell-based
Description: FIG. 7A through 7F. (R)-9bMS overcome enzalutamide-resistance of CRPCs. […] Data represent mean±s.e.m. (n=3) from one of three independent experiments. […] Data represent mean±s.e.m. (n=3) from one of three independent experiments. […] Data represent mean±standard error of the mean (s.e.m.) (n=3) from one of three independent experiments.*p<0.05. […] Cell cycle analysis of prostate cell lines treated with (R)-9bMS (24 hr).
To examine relative sensitivity of CRPCs to enzalutamide and (R)-9bMS, we generated enzalutamide-resistant C4-2B cell line.

For `CNC(=O)c1ccc(N2C(=S)N(c3ccc(C#N)c(C(F)(F)F)c3)C(=O)C2(C)C)cc1F` [enzalutamide, reference compound], the IC50 was over 7.5 µM.
